Assay results published in article PMC9781323.
These are yes or no findings as the source states them, for the method shown. In cells and extracts the contact can be indirect. Some results given as binding are weak or reduced against the parent protein; the word gives no strength.

Chains of the proteins cited; added tags and fusions are not shown.
UniProt Q14258: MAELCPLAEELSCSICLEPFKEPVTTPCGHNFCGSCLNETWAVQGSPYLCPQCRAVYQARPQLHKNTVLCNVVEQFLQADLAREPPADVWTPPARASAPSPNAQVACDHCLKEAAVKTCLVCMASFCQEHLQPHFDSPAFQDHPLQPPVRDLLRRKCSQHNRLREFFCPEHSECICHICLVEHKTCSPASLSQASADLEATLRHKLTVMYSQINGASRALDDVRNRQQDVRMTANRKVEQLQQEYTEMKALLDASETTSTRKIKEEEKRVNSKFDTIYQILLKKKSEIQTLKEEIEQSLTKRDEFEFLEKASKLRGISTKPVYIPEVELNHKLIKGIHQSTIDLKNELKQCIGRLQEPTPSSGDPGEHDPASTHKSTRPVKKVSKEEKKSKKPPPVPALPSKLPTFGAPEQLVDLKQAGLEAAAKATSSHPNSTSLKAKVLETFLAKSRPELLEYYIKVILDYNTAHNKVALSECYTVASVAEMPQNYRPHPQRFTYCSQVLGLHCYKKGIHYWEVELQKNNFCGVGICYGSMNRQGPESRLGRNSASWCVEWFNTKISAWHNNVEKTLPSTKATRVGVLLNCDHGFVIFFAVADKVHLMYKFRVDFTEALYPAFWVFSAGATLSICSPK

Biological target: T1, GTPase-activating protein SH3 domain-binding protein 2 (G3BP2), endogenous in 293T cells (human (endogenous in HEK293T)) (UniProt Q9UN86)
T1 sequence: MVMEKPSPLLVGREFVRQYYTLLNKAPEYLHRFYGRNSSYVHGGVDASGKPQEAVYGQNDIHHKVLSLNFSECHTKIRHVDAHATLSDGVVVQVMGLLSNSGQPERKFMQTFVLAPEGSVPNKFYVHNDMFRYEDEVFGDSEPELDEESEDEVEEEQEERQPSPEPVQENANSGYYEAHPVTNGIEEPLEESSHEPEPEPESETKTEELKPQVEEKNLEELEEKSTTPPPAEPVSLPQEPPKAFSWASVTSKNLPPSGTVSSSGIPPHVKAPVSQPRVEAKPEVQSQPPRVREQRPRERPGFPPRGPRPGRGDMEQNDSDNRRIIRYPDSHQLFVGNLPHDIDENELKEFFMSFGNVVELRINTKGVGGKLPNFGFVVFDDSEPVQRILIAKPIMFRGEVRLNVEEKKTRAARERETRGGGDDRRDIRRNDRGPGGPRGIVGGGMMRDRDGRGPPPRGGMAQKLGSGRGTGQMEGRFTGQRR
Assay: co-IP; […] western blot, grayscale analysis

With “tripartite motif containing 25 (TRIM25), endogenous in 293T cells (from UniProt Q14258 1-630)” the binding was “binds”.
